In publication PMC2775670:
These are yes or no findings as the source states them, for the method shown. In cells and extracts the contact can be indirect. Some entries that bind do so weakly or less than the wild type. For some of these results: Sequences can lack the tags named with a protein.

Amino acid sequences for entries named in this document (tags omitted).
UniProt P09269: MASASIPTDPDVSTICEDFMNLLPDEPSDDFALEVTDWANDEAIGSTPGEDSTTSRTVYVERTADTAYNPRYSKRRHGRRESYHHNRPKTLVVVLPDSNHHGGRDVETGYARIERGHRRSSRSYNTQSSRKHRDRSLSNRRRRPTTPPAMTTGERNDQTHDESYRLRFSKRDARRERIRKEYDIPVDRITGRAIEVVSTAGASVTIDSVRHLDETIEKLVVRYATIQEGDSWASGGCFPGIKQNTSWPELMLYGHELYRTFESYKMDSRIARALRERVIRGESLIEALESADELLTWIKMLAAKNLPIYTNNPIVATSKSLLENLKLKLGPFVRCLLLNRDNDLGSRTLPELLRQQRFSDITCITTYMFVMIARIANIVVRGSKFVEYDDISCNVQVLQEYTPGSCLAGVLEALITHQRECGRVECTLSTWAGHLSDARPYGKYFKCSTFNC
UniProt Q96SB4: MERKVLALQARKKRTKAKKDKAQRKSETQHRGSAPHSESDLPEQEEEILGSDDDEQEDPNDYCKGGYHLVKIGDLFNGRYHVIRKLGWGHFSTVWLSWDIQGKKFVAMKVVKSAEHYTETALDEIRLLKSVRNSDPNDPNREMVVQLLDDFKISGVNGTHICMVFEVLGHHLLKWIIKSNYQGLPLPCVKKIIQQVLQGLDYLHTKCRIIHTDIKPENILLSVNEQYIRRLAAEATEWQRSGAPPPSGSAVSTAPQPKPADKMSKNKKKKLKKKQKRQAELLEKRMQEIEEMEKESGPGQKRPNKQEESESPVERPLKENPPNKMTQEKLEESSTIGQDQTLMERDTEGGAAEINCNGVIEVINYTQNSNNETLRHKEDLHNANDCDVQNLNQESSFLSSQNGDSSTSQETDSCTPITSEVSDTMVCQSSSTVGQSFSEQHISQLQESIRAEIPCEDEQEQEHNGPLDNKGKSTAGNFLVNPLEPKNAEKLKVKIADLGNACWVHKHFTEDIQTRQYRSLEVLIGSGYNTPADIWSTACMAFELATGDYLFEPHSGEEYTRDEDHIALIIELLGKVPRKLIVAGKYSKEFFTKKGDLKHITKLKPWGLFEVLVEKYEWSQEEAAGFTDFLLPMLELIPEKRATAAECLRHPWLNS
UniProt Q07955: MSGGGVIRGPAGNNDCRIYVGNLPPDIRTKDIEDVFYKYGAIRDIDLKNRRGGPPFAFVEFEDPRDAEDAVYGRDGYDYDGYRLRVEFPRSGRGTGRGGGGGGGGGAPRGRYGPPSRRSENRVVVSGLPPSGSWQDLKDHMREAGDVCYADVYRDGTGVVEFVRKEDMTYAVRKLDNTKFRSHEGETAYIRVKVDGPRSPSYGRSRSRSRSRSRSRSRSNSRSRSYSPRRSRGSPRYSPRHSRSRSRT

Tests used:
[1] = biological target: IE4 protein of VZV-infected MeWo cells (Varicella-Zoster virus (NIK strain)) (UniProt P09269); assay: co-IP; total extracts of pFlag-SRPK1-transfected, VZV-infected MeWo cells; anti-IE4 or anti-Flag on protein A-agarose, overnight at 4°C in immunoprecipitation buffer
[2] = biological target: IE4-V5 (pcDNA3.1/V5-His-TOPO-IE4) expressed in HeLa cells (Varicella-Zoster virus) (UniProt P09269); assay: co-IP
Flag-SRPK1 (pFlag-SRPK1) = Flag-SRPK1 (pFlag-SRPK1) (UniProt Q96SB4); assay: co-IP; total extracts of pFlag-SRPK1-transfected, VZV-infected MeWo cells; anti-IE4 or anti-Flag on protein A-agarose, overnight at 4°C in immunoprecipitation buffer
[3] = biological target: HA-ASF/SF2 (pCMV-HA-ASF/SF2) (human) (UniProt Q07955); assay: co-IP
[4] = biological target: T1, HA-9G8 (pCMV-HA-9G8) (human) (UniProt Q16629); assay: co-IP
T1 sequence: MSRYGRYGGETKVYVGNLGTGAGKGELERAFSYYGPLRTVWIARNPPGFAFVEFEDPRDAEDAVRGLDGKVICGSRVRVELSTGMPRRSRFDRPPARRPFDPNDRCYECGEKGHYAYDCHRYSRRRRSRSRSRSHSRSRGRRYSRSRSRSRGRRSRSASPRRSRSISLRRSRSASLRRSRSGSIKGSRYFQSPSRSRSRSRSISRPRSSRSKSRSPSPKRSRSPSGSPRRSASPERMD

[5] = biological target: T2, HA-SRp20 (pCMV-HA-SRp20) (human) (UniProt P84103); assay: co-IP
T2 sequence: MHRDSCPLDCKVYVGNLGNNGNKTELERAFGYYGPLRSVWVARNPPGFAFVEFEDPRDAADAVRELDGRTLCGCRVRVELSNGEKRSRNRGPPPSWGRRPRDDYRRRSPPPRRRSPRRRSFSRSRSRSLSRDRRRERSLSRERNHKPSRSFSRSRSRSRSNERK

GST-ASF/SF2 (human) = GST-ASF/SF2 (human) (UniProt Q07955); assay: pull-down; GST fusion protein on Sepharose beads incubated with 35S-labelled in vitro-translated protein (reticulocyte lysate); 10 mM Tris-HCl pH 8, 150 mM NaCl, 0.1% NP-40, 1 mM PMSF, overnight at 4°C; autoradiography; only the target purified
GST-9G8 (human) = biological target: T3, GST-9G8 (human) (UniProt Q16629); assay: pull-down; data not shown; GST fusion protein on Sepharose beads incubated with 35S-labelled in vitro-translated protein, as for the shown radioactive binding assays; only the target purified
T3 sequence: T1 sequence

GST-SRp20 (human) = biological target: T4, GST-SRp20 (human) (UniProt P84103); assay: as above
T4 sequence: T2 sequence

## Flag-SRPK1 (pFlag-SRPK1) (from UniProt Q96SB4 1-655) (enzyme)
[1]
  binding: binds

## HA-ASF/SF2 (pCMV-HA-ASF/SF2) (from UniProt Q07955 1-248)
[2]
  binding: binds

## IE4 protein of VZV-infected MeWo cells (from UniProt P09269 1-452)
Flag-SRPK1 (pFlag-SRPK1)
  binding: binds

## IE4-V5 (pcDNA3.1/V5-His-TOPO-IE4) expressed in HeLa cells (from UniProt P09269 1-452)
[3]
  binding: binds
[4]
  binding: binds
[5]
  binding: binds

## IE4-V5, in vitro translated (from UniProt P09269 1-452)
GST-ASF/SF2 (human)
  binding: binds
GST-9G8 (human)
  binding: binds
GST-SRp20 (human)
  binding: binds

## endogenous ASF/SF2 of HeLa cells (from UniProt Q07955 1-248)
[2]
  binding: binds
